In general, AC50 refers to the concentration giving half of the maximal activity seen. Read a low AC50 as activity at low concentration.

Molecules are shown by their SMILES. Where “and” joins values, the source holds several entries; their conditions need not be identical. Equal values may be shown once. The list shows a part of the results. The main result of the screen is listed elsewhere. These columns were measured beside it and carry no call. Compounds called inactive in the main read-out are mostly missing here. Words in brackets tell the shape of the fitted curve; partial curves, single points and poor fits give uncertain potencies.

This experiment can be described thus: qHTS Assay for Lipid Storage Modulators in Drosophila S3 Cells.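 For cell number change: cells counted by Cell Tracker Red CMTPX staining in the red channel.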 Conditions: BODIPY lipid droplet fluorescence, 18-24 h; for cell number change: measured here: cell count max response, cells fed with added oleic acid. The procedure, abridged:
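Drosophila S3 cells got compounds at several concentrations plus oleic acid (400 uM solution). Laser-scanning cytometry with 488 nm excitation read lipid droplets at 500-530 nm and cells at 575-640 nm. Percent activity was relative to 20 uM Triacsin C.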

The mark [1] stands for this setting: measured here: cell number channel AC50, cells fed with added oleic acid.
Where [2] appears, read: measured here: lipid fluorescence (Fed channel) AC50, cells fed with added oleic acid.

As for `Cc1ccccc1NCC(=O)N/N=C/C(Br)=C/c1ccccc1`, the cell number change is -27%.

For `CSCC(=O)NC1CCCc2c1cnn2-c1ccc(C)c(C)c1` (configuration not stated), the cell number change is -33%. For the same molecule, the half-maximal activity concentration (AC50) under setting [1] is 3.26 µM [falling, full curve, poor fit]. The concentration at half-maximal activity (AC50) under setting [2] was 0.651 µM [falling, partial curve, poor fit].

For the molecule `S=c1[nH]ncn1/N=C/c1ccccc1`, the cell number change is 2.85%. For the same molecule, the concentration at half-maximal activity (AC50) under setting [2] is 0.13 µM [falling, full curve, poor fit].

For the molecule `O=C(Nc1ccc2c(c1)nc1n2CCN(Cc2ccccc2)C1)c1cccs1`, the cell number change amounted to 12.5%. For the same molecule, under setting [1], the AC50 was 0.517 µM [rising, full curve]. In addition, the half-maximal activity concentration (AC50) under setting [2] was 0.58 µM [rising, full curve].

As to `O=C(NCC1CCCO1)c1ccc2[nH]c3c(c2c1)CCCC3` (configuration not stated), the cell number change was -10.1%. The concentration at half-maximal activity (AC50) under setting [2] was 6.51 µM [falling, partial curve, poor fit].

For the molecule `Fc1ccc(C(c2nnnn2C2CCCC2)N2CCN(Cc3ccccc3)CC2)cc1` (configuration not stated), the cell number change was -0.838%. For the same molecule, the half-maximal activity concentration (AC50) under setting [2] is 0.00461 µM [rising, full curve, poor fit].

Take `O=C(CSCC(=O)c1ccccc1)Nc1ccccc1Cl`: the cell number change amounted to 20.7%. The AC50 under setting [2] was 29.1 µM [rising, single point].

As to `COc1ccc(/C(N)=N/O)c(OC)c1`, the cell number change is -99.8%. In addition, the AC50 under setting [1] is 18.4 µM [falling, partial curve]. In addition, under setting [2], the AC50 was 18.4 µM [falling, partial curve].

For `CC1CN(CC(=O)Nc2ccc([N+](=O)[O-])cc2Br)CC(C)O1` (configuration not stated), the cell number change is -5.19%. Besides, the AC50 under setting [2] is 6.51 µM [falling, single point].

On to `CCN1CCN(CCn2c(=S)[nH]c3cc4c(cc3c2=O)OCO4)CC1`, for which the concentration at half-maximal activity (AC50) was 0.411 µM [rising, full curve] under setting [1] and 0.164 µM [rising, full curve, poor fit] under setting [2].

As to `Cn1c(SCC(=O)NC2CC2)nnc1-c1ccco1`, the cell number change turned out to be 3.11%. In addition, the AC50 under setting [2] is 1.03 µM [falling, full curve].

Turning to `O=C1CN(C(=O)c2ccc(Br)o2)C(c2ccc(F)cc2)c2cc(Cl)ccc2N1` (configuration not stated), the cell number change came to 21.7%. Further, the AC50 under setting [1] is 3.66 µM [rising, single point].

For `CCC(=O)N1CCc2cc(S(=O)(=O)N3CCCCCC3)ccc21`, the cell number change was -33.7%. In addition, the concentration at half-maximal activity (AC50) under setting [1] is 0.0184 µM [falling, full curve, poor fit]. For the same molecule, the AC50 under setting [2] was 6.51 µM [falling, single point].

In the case of `Cn1ccnc1SCC(=O)Nc1ccc(F)c([N+](=O)[O-])c1`, the cell number change is 20.5%. The AC50 under setting [1] was 0.461 µM [rising, full curve, poor fit]. In addition, the half-maximal activity concentration (AC50) under setting [2] was 0.651 µM [rising, full curve, poor fit].

For the molecule `O=C(c1ccco1)N1CCN(C2=NS(=O)(=O)c3ccccc32)CC1`, the cell number change was 13.1%. Also, the half-maximal activity concentration (AC50) under setting [2] is 5.17 µM [falling, partial curve, poor fit].

Turning to `CCOC(=O)c1c(-c2ccc(-c3ccccc3)cc2)csc1NC(=O)CCN1CCOCC1`, the cell number change is -0.142%. Also, under setting [2], the AC50 was 0.103 µM [rising, full curve, poor fit].

In the case of `Cc1cc2c(cc1C)NC(=O)CC(C(F)(F)C(F)(F)C(F)(F)F)=N2`, the cell number change is -33.3%. Under setting [1], the AC50 is 29.1 µM [falling, single point]. Besides, under setting [2], the AC50 was 29.1 µM [falling, single point].

Consider `Cc1cccc(Nc2nnc(SCC(=O)Nc3cccc(S(=O)(=O)N4CCCCC4)c3)s2)c1`, for which the cell number change was -22.2%. Also, under setting [2], the AC50 was 29.1 µM [falling, single point].

`CSc1nc2ccc(NC(=O)C3CC(=O)N(Cc4ccco4)C3)cc2s1` (configuration not stated): the cell number change was -16%. Besides, under setting [2], the half-maximal activity concentration (AC50) was 0.411 µM [rising, partial curve, poor fit].

Regarding `CCCc1nnc(NC(=O)COc2ccc3c(c2)OCO3)s1`, the cell number change was -0.427%.

As for `COc1cc(N/N=C(\C)c2ccc(O)c(C)c2)nc(-c2ccccc2)n1`, the cell number change is -51.9%. The AC50 under setting [1] is 29.1 µM [falling, single point].

As for `COc1ccc(N2CCN(C(=O)c3cccc(NS(=O)(=O)c4cccc(F)c4)c3)CC2)cc1`, the cell number change is -28.2%. Under setting [2], the half-maximal activity concentration (AC50) is 1.64 µM [rising, partial curve].

As for `CN(C)S(=O)(=O)c1ccc2c(c1)C(CC(=O)O)OC2=O` (configuration not stated), the cell number change is -14.3%.

In the case of `COc1cccc(CNC(=O)CCCn2nc(C)c3c(C)n(-c4ccc(C)cc4)nc3c2=O)c1OC`, the cell number change stood at 1.19%. For the same molecule, the AC50 under setting [1] was 3.66 µM [rising, single point].

For the molecule `CCc1cccc(OCC(=O)N(C)CC(=O)Nc2cccc(F)c2)c1`, the cell number change was 30.7%. Moreover, the concentration at half-maximal activity (AC50) under setting [1] was 18.4 µM [rising, single point].

On to `COc1ccc(C(C)=O)cc1CSc1ccc(S(=O)(=O)N2CCCCC2)cn1`, for which the cell number change is -17.2%.

On to `CCOc1ccc(S(=O)(=O)N2CCC(C(=O)NCc3ccccn3)CC2)cc1Cl`, for which the cell number change turned out to be 17.9%. In addition, under setting [2], the AC50 was 4.11 µM [rising, full curve].

Take `CCn1c(SCC(=O)NCc2ccc3c(c2)OCO3)nnc1-c1cccs1`: the AC50 under setting [1] was 6.51 µM [falling, single point].

Consider `CCCc1[nH]nc2c1C(c1ccc(OC)c(Cn3nnc4ccccc43)c1)C(C#N)=C(N)O2` (configuration not stated), for which the cell number change is 3.03%. Moreover, the AC50 under setting [2] is 0.116 µM [rising, full curve, poor fit].

As for `C=C(C)c1cccc(C(C)(C)NC(=O)NC(c2ccccc2)c2ccc(OC)cc2)c1` (configuration not stated), the cell number change turned out to be 21.3%. Besides, the concentration at half-maximal activity (AC50) under setting [1] is 0.651 µM [falling, single point]. In addition, under setting [2], the AC50 was 1.16 µM [falling, single point].

Take `COc1ccc(S(=O)(=O)NNC(=O)Nc2ccc(F)cc2F)c(OC)c1`: the cell number change was -51.1%.

As for `C#CCn1c(=NC(=O)CN2C(=O)CCC2=O)sc2cc(S(N)(=O)=O)ccc21`, the cell number change is 12%.

Take `CC(C)(C)C(=O)Nc1ccccc1-c1nc2ccccc2[nH]c1=O`: the cell number change was -2.55%. Under setting [2], the AC50 was 29.1 µM [rising, single point].

On to `O=[N+]([O-])c1ccccc1CN1CCN(S(=O)(=O)Cc2ccccc2)CC1`, for which the cell number change stood at 57.1%. Besides, the AC50 under setting [1] was 14.6 µM [rising, partial curve].

On to `CCc1noc(C)c1C(=O)Nc1nc(-c2ccc(Cl)cc2Cl)c(C)s1`, for which the cell number change is 36.5%. The AC50 under setting [1] was 2.59 µM [rising, full curve]. Besides, the concentration at half-maximal activity (AC50) under setting [2] is 23.1 µM [rising, single point].

As for `CCOc1ccccc1C(=O)N(Cc1cccs1)C1CCS(=O)(=O)C1` (configuration not stated), the cell number change was -11%. Besides, under setting [2], the AC50 was 20.6 µM [falling, single point].

In the case of `CCCC(=O)NCCc1nc2ccccc2n1C`, the cell number change was determined as 3.59%. Also, the AC50 under setting [2] is 29.1 µM [falling, single point].

`C#CCOc1nc(Nc2cccc([N+](=O)[O-])c2)nc(OCC#C)n1`: the cell number change stood at 0.475%. Besides, the AC50 under setting [2] was 0.231 µM [rising, full curve, poor fit].

As to `CCOc1cccc(C(=O)Nc2cc(-c3nn4c(C)nnc4s3)ccc2C)c1`, the cell number change was determined as 8.23%. The AC50 under setting [2] is 0.184 µM [rising, full curve, poor fit].

For the molecule `O=C(c1ccc(COc2ccccc2Cl)o1)N1CCOCC1`, the cell number change was 34%. In addition, the concentration at half-maximal activity (AC50) under setting [1] was 13 µM [rising, partial curve].

With `Cc1cc(NC(=O)CSc2ccccc2)no1`, the cell number change is 1.06%.

For the molecule `O=C1/C(=C/c2ccco2)CCc2ccccc21`, the cell number change was -11.8%. Further, under setting [2], the AC50 is 6.51 µM [rising, partial curve, poor fit].

`Cc1ccc(-n2c(SCC(N)=O)nc3c(c2=O)C2(CCCC2)Cc2ccccc2-3)cc1`: the cell number change came to 12.4%. Further, the concentration at half-maximal activity (AC50) under setting [2] was 11.6 µM [rising, partial curve, poor fit].

On to `CCOC(=O)C(CCCCP(=O)(c1ccccc1)c1ccccc1)(NC(C)=O)C(=O)OCC`, for which the cell number change amounted to 19%. Besides, under setting [2], the AC50 was 0.092 µM [falling, full curve, poor fit].

For `CCOC(=O)COc1ccc(S(=O)(=O)N2CCN(c3ccc(F)cc3)CC2)cc1`, the cell number change was -15.3%.

On to `CCOC(=O)C1=C(C)NC(=S)N(C(C)=O)C1c1ccc(OC)c(OC)c1` (configuration not stated), for which the cell number change is 18.4%. Moreover, under setting [2], the concentration at half-maximal activity (AC50) was 0.206 µM [rising, full curve].

`COc1ccc(NC(=O)c2ccc(NC(=O)c3ccco3)cc2)c(OC)c1`: the cell number change is -7.69%. Moreover, the AC50 under setting [2] was 0.326 µM [falling, full curve, poor fit].

Consider `Cc1cc(-c2ccccc2)c(C#N)c(N)n1`, for which the cell number change is -29.3%. For the same molecule, the concentration at half-maximal activity (AC50) under setting [1] was 0.461 µM [falling, full curve]. The AC50 under setting [2] was 0.146 µM [falling, full curve, poor fit].

On to `CSCCC(NC(=O)COc1ccccc1)C(=O)N1CCCCC1` (configuration not stated), for which the cell number change came to 20.7%. Also, under setting [2], the AC50 is 10.3 µM [rising, partial curve].

`CCOC(=O)C1CCCN(C(=O)c2ccc(C(=O)c3ccccc3)cc2)C1` (configuration not stated): the cell number change is -51.3%. In addition, under setting [1], the AC50 was 4.11 µM [falling, full curve]. The AC50 under setting [2] was 4.11 µM [falling, full curve].

In the case of `Cc1ccc(NC2CCCN(C(=O)c3cccnc3)C2)cc1C` (configuration not stated), the cell number change is -4.11%. Under setting [2], the AC50 was 29.1 µM [rising, single point].

For `Cc1ccc(S(=O)(=O)N2c3ccccc3NC(=O)C2CC(=O)Nc2ccccc2)cc1` (configuration not stated), the cell number change was determined as 7.44%. The AC50 under setting [1] was 0.0058 µM [falling, full curve, poor fit]. Moreover, the AC50 under setting [2] is 29.1 µM [rising, single point].

Consider `COc1cccc(-c2ccc3ncnc(NCc4cccc(C)c4)c3c2)c1`, for which the cell number change was -18.1% and 27.6%. In addition, under setting [2], the AC50 is 2.31 µM [rising, partial curve, poor fit].

As for `COCc1nnc(NC(=O)c2cc(C(=O)OC)cc([N+](=O)[O-])c2)s1`, the cell number change is 10.8%. Under setting [2], the AC50 is 0.58 µM [falling, single point].

As to `CCCNC(=O)C(Cc1cccc(OC)c1)NC(=O)c1ccc(C(C)(C)C)cc1` (configuration not stated), the cell number change was -32.2%. Under setting [1], the half-maximal activity concentration (AC50) was 29.1 µM [falling, single point].

With `O=C(Oc1ccccc1)c1cc2ccccc2o1`, the cell number change is 13.5%.

Regarding `COc1ccc(NC(=O)/C(C#N)=C/c2ncc([N+](=O)[O-])n2C)c(OC)c1`, the cell number change was determined as 15.4%. Under setting [2], the concentration at half-maximal activity (AC50) was 2.91 µM [rising, full curve].

As to `O=C(Nc1cccc(S(=O)(=O)N2CCCCC2)c1)c1cc([N+](=O)[O-])ccc1N1CCOCC1`, the AC50 under setting [2] was 0.13 µM [rising, full curve, poor fit].

`CCN(c1ccccc1)S(=O)(=O)c1cccc(C(=O)NCc2ccccn2)c1`: the AC50 under setting [1] was 6.51 µM [rising, single point].

For the origin of these results see PubChem BioAssay AID2685 (National Center for Advancing Translational Sciences (NCATS), 2010).
